Consider one substance from PMC6586822.

Sequences of proteins named here, by UniProt entry; tags and fusion partners are left off. Residues count along the entry.
UniProt P17927, residues 42-1971: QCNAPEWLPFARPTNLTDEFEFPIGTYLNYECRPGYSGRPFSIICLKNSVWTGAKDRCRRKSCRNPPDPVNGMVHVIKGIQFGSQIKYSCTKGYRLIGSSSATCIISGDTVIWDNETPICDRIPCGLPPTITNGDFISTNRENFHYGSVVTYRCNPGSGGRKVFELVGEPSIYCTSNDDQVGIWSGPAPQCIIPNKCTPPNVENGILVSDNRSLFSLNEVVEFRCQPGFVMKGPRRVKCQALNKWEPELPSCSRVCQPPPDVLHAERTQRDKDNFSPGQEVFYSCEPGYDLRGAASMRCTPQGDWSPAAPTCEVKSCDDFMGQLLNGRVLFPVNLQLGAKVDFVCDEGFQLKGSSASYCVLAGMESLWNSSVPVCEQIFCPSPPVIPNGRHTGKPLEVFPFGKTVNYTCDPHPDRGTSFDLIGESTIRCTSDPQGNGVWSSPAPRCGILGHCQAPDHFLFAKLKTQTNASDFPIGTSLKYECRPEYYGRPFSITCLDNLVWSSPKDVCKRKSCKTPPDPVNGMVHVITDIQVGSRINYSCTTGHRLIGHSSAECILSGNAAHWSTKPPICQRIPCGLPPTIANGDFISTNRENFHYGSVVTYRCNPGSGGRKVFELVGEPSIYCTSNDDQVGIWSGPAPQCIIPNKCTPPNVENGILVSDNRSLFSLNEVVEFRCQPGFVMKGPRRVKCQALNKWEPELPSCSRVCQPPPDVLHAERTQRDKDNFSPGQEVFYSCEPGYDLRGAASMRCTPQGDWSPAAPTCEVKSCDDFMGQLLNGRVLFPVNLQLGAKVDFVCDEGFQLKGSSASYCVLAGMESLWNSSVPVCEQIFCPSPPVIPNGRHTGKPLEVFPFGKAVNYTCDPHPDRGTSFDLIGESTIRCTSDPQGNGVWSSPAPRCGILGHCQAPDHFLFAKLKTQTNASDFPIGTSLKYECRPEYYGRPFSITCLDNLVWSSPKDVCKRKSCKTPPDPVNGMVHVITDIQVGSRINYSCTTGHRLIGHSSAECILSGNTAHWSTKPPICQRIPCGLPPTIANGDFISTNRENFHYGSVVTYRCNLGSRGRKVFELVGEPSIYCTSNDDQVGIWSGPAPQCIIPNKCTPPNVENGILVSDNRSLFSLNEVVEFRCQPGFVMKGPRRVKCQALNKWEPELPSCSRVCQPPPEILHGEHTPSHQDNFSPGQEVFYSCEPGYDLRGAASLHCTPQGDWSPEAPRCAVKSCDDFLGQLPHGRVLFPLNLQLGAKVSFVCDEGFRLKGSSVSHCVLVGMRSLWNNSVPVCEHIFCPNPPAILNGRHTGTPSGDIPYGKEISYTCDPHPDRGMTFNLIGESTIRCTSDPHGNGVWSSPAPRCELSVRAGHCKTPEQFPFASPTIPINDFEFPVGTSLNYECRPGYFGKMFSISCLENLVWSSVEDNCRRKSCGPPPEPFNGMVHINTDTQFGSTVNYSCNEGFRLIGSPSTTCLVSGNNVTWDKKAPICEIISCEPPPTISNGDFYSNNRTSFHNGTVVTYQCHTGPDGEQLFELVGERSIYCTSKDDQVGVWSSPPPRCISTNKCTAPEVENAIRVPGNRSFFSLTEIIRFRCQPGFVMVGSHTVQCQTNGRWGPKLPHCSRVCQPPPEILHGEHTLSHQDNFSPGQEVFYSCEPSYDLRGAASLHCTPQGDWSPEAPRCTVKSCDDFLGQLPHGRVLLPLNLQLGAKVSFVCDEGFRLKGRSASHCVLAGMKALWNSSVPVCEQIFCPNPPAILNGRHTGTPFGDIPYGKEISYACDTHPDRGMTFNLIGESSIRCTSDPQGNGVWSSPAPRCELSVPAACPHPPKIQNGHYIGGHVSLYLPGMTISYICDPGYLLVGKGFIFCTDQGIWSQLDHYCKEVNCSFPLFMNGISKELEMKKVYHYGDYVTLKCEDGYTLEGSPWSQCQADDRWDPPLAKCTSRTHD
UniProt A5K736, residues 161-1454: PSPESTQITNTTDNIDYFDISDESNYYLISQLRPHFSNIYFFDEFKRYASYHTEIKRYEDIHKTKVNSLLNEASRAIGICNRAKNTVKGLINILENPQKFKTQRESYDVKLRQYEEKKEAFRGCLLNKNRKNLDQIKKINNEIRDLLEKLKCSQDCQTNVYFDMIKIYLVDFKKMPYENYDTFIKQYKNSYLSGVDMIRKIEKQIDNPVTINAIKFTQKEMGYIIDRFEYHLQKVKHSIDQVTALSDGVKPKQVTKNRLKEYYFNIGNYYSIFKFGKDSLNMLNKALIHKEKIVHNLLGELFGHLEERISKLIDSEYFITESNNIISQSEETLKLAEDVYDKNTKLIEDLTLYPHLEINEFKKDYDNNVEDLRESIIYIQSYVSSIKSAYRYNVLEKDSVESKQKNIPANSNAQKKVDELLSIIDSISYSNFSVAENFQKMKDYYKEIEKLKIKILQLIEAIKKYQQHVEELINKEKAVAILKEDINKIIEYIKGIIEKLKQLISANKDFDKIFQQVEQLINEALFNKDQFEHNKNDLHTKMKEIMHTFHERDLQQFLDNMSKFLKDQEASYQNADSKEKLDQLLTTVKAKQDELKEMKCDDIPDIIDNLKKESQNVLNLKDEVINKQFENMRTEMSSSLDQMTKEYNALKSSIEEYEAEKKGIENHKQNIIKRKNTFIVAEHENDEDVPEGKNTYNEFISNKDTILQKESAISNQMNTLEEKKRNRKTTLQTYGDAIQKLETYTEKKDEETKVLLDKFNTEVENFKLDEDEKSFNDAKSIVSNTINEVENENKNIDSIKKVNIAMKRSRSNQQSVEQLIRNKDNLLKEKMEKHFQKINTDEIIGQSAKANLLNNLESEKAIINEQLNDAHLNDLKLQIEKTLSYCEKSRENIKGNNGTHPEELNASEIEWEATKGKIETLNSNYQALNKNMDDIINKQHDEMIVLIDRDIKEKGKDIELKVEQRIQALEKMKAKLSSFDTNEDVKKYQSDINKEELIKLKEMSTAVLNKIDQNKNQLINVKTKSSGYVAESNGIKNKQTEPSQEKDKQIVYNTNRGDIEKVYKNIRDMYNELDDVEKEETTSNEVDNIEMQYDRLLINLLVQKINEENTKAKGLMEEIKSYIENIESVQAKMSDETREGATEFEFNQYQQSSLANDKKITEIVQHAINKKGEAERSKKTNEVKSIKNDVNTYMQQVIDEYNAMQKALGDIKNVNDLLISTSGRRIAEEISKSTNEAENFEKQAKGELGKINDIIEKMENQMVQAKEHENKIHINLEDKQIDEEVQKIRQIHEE

The target in this assay is soluble recombinant CR1 protein (human) (UniProt P17927). As to the kind of experiment: co-IP; recombinant proteins incubated at 0.05 mg/ml in 50-100 µl for 1 hour at room temperature; sCR1 captured with anti-CR1 mAb HB8592 (0.02 mg/ml) and Protein G Sepharose; beads washed three times with PBS; eluates on reducing SDS-PAGE, SimplyBlue SafeStain; both purified.

No constants are given. Whether binding was seen depends on the method and setting.

With “PvRBP2b (amino acids 161-1454) (from UniProt A5K736 161-1454) (domain or fragment)”, the binding result is on record as “no binding (tested: 0.05 mg/ml)”.
